Measurements: article PMC12591119

The chains behind the UniProt entries cited, without tags or fusion partners.
UniProt Q9BYT3: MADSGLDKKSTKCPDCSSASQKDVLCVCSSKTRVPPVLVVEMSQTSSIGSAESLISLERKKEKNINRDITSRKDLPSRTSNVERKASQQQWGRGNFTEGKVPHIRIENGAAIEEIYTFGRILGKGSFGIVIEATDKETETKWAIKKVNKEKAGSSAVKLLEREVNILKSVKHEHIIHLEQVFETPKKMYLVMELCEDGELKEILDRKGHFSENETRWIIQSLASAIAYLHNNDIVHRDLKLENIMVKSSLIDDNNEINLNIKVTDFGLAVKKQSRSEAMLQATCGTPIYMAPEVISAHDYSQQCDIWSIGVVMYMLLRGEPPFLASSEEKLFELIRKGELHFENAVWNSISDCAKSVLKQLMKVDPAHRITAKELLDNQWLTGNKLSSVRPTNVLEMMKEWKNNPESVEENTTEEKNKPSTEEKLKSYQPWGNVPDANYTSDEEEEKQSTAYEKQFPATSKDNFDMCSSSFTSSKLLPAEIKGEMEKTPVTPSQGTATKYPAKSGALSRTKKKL

Biological target: Flag-tagged STK33 immunoprecipitated from MDA-MB-231 cells (UniProt Q9BYT3)
Experiment: affinity purification with mass spectrometry; proteins immunoprecipitated by anti-Flag antibody from MDA-MB-231 cells, analysed by mass spectrometry

B1: cell division cycle and apoptosis regulator protein 1 (CCAR1) (protein, UniProt Q8IX12 1-1150)
chain: MAQFGGQKNPPWATQFTATAVSQPAALGVQQPSLLGASPTIYTQQTALAAAGLTTQTPANYQLTQTAALQQQAAAAAAALQQQYSQPQQALYSVQQQLQQPQQTLLTQPAVALPTSLSLSTPQPTAQITVSYPTPRSSQQQTQPQKQRVFTGVVTKLHDTFGFVDEDVFFQLSAVKGKTPQVGDRVLVEATYNPNMPFKWNAQRIQTLPNQNQSQTQPLLKTPPAVLQPIAPQTTFGVQTQPQPQSLLQAQISAASITPLLQTQPQPLLQQPQQKAGLLQPPVRIVSQPQPARRLDPPSRFSGRNDRGDQVPNRKDDRSRERERERRRSRERSPQRKRSRERSPRRERERSPRRVRRVVPRYTVQFSKFSLDCPSCDMMELRRRYQNLYIPSDFFDAQFTWVDAFPLSRPFQLGNYCNFYVMHREVESLEKNMAILDPPDADHLYSAKVMLMASPSMEDLYHKSCALAEDPQELRDGFQHPARLVKFLVGMKGKDEAMAIGGHWSPSLDGPDPEKDPSVLIKTAIRCCKALTGIDLSVCTQWYRFAEIRYHRPEETHKGRTVPAHVETVVLFFPDVWHCLPTRSEWETLSRGYKQQLVEKLQGERKEADGEQDEEEKDDGEAKEISTPTHWSKLDPKTMKVNDLRKELESRALSSKGLKSQLIARLTKQLKVEEQKEEQKELEKSEKEEDEDDDRKSEDDKEEEERKRQEEIERQRRERRYILPDEPAIIVHPNWAAKSGKFDCSIMSLSVLLDYRLEDNKEHSFEVSLFAELFNEMLQRDFGVRIYKSLLSLPEKEDKKEKDKKSKKDERKDKKEERDDETDEPKPKRRKSGDDKDKKEDRDERKKEDKRKDDSKDDDETEEDNNQDEYDPMEAEEAEDEEDDRDEEEMTKRDDKRDINRYCKERPSKDKEKEKTQMITINRDLLMAFVYFDQSHCGYLLEKDLEEILYTLGLHLSRAQVKKLLNKVVLRESCFYRKLTDTSKDEENHEESESLQEDMLGNRLLLPTPTVKQESKDVEENVGLIVYNGAMVDVGSLLQKLEKSEKVRAEVEQKLQLLEEKTDEDEKTILNLENSNKSLSGELREVKKDLSQLQENLKISENMNLQFENQMNKTIRNLSTVMDEIHTVLKKDNVKNEDKDQKSKENGASV
binding: binds

Results are given in words; binding and its absence hold for the method and conditions named. In cells and extracts the contact can be indirect. These calls come from enrichment with a bait or labelling near it, and not all partners need be listed.
